The target in experiment [1] is T1, Flag-tagged PIR (Pirin) (human) (UniProt O00625).
T1 sequence: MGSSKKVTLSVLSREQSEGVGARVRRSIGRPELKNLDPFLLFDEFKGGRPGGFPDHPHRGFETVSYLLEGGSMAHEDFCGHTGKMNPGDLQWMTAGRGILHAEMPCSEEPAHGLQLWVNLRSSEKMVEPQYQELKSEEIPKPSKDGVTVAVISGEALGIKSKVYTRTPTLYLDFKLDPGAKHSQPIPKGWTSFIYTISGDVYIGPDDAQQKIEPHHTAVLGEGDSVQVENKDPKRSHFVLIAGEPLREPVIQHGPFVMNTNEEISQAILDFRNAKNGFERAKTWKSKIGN
In words: co-IP; Flag-PIR and HA-RELB transiently expressed in HEK293T cells; IP with anti-Flag agarose, Flag-PIR and HA-RELB detected in the precipitates.

Amino acid sequences for entries named in this document (tags omitted). Residues count along the entry.
UniProt P25445, residues 26-335: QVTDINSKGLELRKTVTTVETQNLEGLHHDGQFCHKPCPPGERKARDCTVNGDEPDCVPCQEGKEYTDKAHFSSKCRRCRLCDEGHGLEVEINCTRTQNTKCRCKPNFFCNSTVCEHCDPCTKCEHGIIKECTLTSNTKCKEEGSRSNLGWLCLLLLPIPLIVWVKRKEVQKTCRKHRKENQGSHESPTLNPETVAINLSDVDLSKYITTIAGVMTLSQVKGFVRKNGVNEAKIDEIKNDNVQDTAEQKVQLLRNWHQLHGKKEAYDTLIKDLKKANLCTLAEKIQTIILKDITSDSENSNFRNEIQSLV

Experiment [2] concerns the target T2, PIR (Pirin), endogenous in HCT116 cells (human (endogenous in HCT116)) (UniProt O00625).
T2 sequence: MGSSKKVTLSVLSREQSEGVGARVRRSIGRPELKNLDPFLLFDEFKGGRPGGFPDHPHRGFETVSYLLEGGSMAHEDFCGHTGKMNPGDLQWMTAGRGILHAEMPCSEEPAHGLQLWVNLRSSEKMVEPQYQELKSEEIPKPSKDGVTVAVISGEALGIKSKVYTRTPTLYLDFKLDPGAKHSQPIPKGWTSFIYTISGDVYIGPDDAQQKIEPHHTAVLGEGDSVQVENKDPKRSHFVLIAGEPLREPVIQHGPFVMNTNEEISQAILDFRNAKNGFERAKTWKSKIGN
Nature of the experiment: co-IP; endogenous proteins in HCT116 cells; precipitating antibody not stated.

The next experiment addresses HA-tagged FAS (human) (UniProt P25445). In words: co-IP; HA-tagged protein transiently expressed in HCT116 cells; IP with anti-HA; E2F1 detected as a negative control.

Results are given in words; binding and its absence hold for the method and conditions named. In cells and extracts the contact can be indirect. Some binding calls cover weakened binding; strength is not graded here. For part of these data: Where a sequence is shown, tags or fusion partners need not be part of it.

B1: HA-tagged RELB (protein, UniProt Q01201 1-579)
chain: MLRSGPASGPSVPTGRAMPSRRVARPPAAPELGALGSPDLSSLSLAVSRSTDELEIIDEYIKENGFGLDGGQPGPGEGLPRLVSRGAASLSTVTLGPVAPPATPPPWGCPLGRLVSPAPGPGPQPHLVITEQPKQRGMRFRYECEGRSAGSILGESSTEASKTLPAIELRDCGGLREVEVTACLVWKDWPHRVHPHSLVGKDCTDGICRVRLRPHVSPRHSFNNLGIQCVRKKEIEAAIERKIQLGIDPYNAGSLKNHQEVDMNVVRICFQASYRDQQGQMRRMDPVLSEPVYDKKSTNTSELRICRINKESGPCTGGEELYLLCDKVQKEDISVVFSRASWEGRADFSQADVHRQIAIVFKTPPYEDLEIVEPVTVNVFLQRLTDGVCSEPLPFTYLPRDHDSYGVDKKRKRGMPDVLGELNSSDPHGIESKRRKKKPAILDHFLPNHGSGPFLPPSALLPDPDFFSGTVSLPGLEPPGGPDLLDDGFAYDPTAPTLFTMLDLLPPAPPHASAVVCSGGAGAVVGETPGPEPLTLDSYQAPGPGDGGTASLVGSNMFPNHYREAAFGGGLLSPGPEAT
B1: the binding entry in experiment [1] was “binds”.

B2: RELB, endogenous in HCT116 cells (protein, UniProt Q01201 1-579)
chain: MLRSGPASGPSVPTGRAMPSRRVARPPAAPELGALGSPDLSSLSLAVSRSTDELEIIDEYIKENGFGLDGGQPGPGEGLPRLVSRGAASLSTVTLGPVAPPATPPPWGCPLGRLVSPAPGPGPQPHLVITEQPKQRGMRFRYECEGRSAGSILGESSTEASKTLPAIELRDCGGLREVEVTACLVWKDWPHRVHPHSLVGKDCTDGICRVRLRPHVSPRHSFNNLGIQCVRKKEIEAAIERKIQLGIDPYNAGSLKNHQEVDMNVVRICFQASYRDQQGQMRRMDPVLSEPVYDKKSTNTSELRICRINKESGPCTGGEELYLLCDKVQKEDISVVFSRASWEGRADFSQADVHRQIAIVFKTPPYEDLEIVEPVTVNVFLQRLTDGVCSEPLPFTYLPRDHDSYGVDKKRKRGMPDVLGELNSSDPHGIESKRRKKKPAILDHFLPNHGSGPFLPPSALLPDPDFFSGTVSLPGLEPPGGPDLLDDGFAYDPTAPTLFTMLDLLPPAPPHASAVVCSGGAGAVVGETPGPEPLTLDSYQAPGPGDGGTASLVGSNMFPNHYREAAFGGGLLSPGPEAT
Turning to B2, the binding result in experiment [2] is on record as “binds”.

B3: PIR (Pirin), endogenous in HCT116 cells (protein, UniProt O00625 1-290)
chain: MGSSKKVTLSVLSREQSEGVGARVRRSIGRPELKNLDPFLLFDEFKGGRPGGFPDHPHRGFETVSYLLEGGSMAHEDFCGHTGKMNPGDLQWMTAGRGILHAEMPCSEEPAHGLQLWVNLRSSEKMVEPQYQELKSEEIPKPSKDGVTVAVISGEALGIKSKVYTRTPTLYLDFKLDPGAKHSQPIPKGWTSFIYTISGDVYIGPDDAQQKIEPHHTAVLGEGDSVQVENKDPKRSHFVLIAGEPLREPVIQHGPFVMNTNEEISQAILDFRNAKNGFERAKTWKSKIGN
For B3, the binding result with HA-tagged FAS (human) is given as “binds”.

The values above are taken from article PMC10933653.
